Results are given in words; binding and its absence hold for the method and conditions named. In cells and extracts the contact can be indirect. A yes stands for co-enrichment or nearness to the bait. Other partners may have been found. Tags and fused reporters may be left off the sequences shown.
Target: T1, 3×FLAG-tagged FBXO24 expressed in transgenic mouse testes (mouse) (UniProt Q9D417)
T1 sequence: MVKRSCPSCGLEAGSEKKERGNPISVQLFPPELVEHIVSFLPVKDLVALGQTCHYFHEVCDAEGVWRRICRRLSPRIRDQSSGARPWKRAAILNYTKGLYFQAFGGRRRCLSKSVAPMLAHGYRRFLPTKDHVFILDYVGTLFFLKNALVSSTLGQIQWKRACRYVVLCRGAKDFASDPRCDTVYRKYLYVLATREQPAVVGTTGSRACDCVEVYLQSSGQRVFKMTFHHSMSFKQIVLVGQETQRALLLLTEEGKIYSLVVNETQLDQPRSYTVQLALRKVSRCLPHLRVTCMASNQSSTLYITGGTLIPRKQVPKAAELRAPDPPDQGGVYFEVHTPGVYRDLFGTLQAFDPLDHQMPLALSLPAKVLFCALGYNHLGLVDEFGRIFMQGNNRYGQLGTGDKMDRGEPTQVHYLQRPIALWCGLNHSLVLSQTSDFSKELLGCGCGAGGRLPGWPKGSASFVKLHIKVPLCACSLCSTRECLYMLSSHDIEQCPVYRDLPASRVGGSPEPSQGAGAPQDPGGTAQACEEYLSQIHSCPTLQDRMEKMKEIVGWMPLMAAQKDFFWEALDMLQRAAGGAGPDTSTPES
Test: affinity purification with mass spectrometry; IP of FBXO24-FLAG with anti-FLAG antibody from Fbxo24-FLAG Tg mouse testes; elution with 3×FLAG peptide; mass spectrometry

B1: IPO5 (importin 5), endogenous in mouse testis (protein, UniProt Q8BKC5 1-1097)
chain: MAAAAAEQQQFYLLLGNLLSPDNVVRKQAEETYENIPGRSKITFLLQAIRNTTAAEEARQMAAVLLRRLLSSAFDEVYPALPSDVQTAIKSELLMIIQMETQSSMRKKICDIAAELARNLIDEDGNNQWPEGLKFLFDSVSSQNMGLREAALHIFWNFPGIFGNQQQHYLDVIKRMLVQCMQDQEHPSIRTLSARATAAFILANEHNVALFKHFADLLPGFLQAVNDSCYQNDDSVLKSLVEIADTVPKYLRPHLEATLQLSLKLCGDTNLNNMQRQLALEVIVTLSETAAAMLRKHTSLIAQTIPQMLAMMVDLEEDEDWANADELEDDDFDSNAVAGESALDRMACGLGGKLVLPMIKEHIMQMLQNPDWKYRHAGLMALSAIGEGCHQQMEGILNEIVNFVLLFLQDPHPRVRYAACNAVGQMATDFAPGFQKKFHEKVIAALLQTMEDQGNQRVQAHAAAALINFTEDCPKSLLIPYLDNLVKHLHSIMVLKLQELIQKGTKLVLEQVVTSIASVADTAEEKFVPYYDLFMPSLKHIVENAVQKELRLLRGKTIECISLIGLAVGKEKFMQDASDVMQLLLKTQTDFNDMEDDDPQISYMISAWARMCKILGKEFQQYLPVVMGPLMKTASIKPEVALLDTQDMENMSDDDGWEFVNLGDQQSFGIKTAGLEEKSTACQMLVCYAKELKEGFVEYTEQVVKLMVPLLKFYFHDGVRVAAAESMPLLLECARVRGPEYLTQMWHFMCDALIKAIGTEPDSDVLSEIMHSFAKCIEVMGDGCLNNEHFEELGGILKAKLEEHFKNQELRQVKRQDEDYDEQVEESLQDEDDNDVYILTKVSDILHSIFSSYKEKVLPWFEQLLPLIVNLICPQRPWPDRQWGLCIFDDIVEHCSPASFKYAEYFISPMLQYVCDNSPEVRQAAAYGLGVMAQFGGDNYRPFCTDALPLLVRVIQAPEAKTKENVNATENCISAVGKIMKFKPDCVNVEEVLPHWLSWLPLHEDKEEAVQTFSYLCDLIESNHPIVLGPNNTNLPKIFSIIAEGEMHEAIKHEDPCAKRLANVVRQVQTSGGLWTECIAQLSPEQQAAIQELLNSA
binding: binds

Reference: paper doi:10.1101/2023.11.10.566635
